Whole data set: some 3,200 compounds, median “TSA(without NAD+) / Primary screening (TSA) / delta Tm (K)” near -0.07, cut for the highest 2% near 0.37. Some of the results follow.
Target: NAD-dependent deacetylase Sirtuin 1 (human, UniProt Q96EB6)
Assay: primary screen, delta tm
Set-up: single well (n = 1)
Conditions: 10 µM
Method in brief: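 Thermal shift of Sirtuin 1 measured without NAD+, compound at 10 µM (n = 1); value is ΔTm, with hits defined as ΔTm > 0.45 K or < −1.5 K. Hits retested at 5, 10, 20 µM (n = 4) and counterscreened on bovine carbonic anhydrase and ABL1 SH2 domain.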

Sequences of proteins named here, by UniProt entry; tags and fusion partners are left off. Residues count along the entry.
UniProt Q96EB6, 2-747 limits assumed: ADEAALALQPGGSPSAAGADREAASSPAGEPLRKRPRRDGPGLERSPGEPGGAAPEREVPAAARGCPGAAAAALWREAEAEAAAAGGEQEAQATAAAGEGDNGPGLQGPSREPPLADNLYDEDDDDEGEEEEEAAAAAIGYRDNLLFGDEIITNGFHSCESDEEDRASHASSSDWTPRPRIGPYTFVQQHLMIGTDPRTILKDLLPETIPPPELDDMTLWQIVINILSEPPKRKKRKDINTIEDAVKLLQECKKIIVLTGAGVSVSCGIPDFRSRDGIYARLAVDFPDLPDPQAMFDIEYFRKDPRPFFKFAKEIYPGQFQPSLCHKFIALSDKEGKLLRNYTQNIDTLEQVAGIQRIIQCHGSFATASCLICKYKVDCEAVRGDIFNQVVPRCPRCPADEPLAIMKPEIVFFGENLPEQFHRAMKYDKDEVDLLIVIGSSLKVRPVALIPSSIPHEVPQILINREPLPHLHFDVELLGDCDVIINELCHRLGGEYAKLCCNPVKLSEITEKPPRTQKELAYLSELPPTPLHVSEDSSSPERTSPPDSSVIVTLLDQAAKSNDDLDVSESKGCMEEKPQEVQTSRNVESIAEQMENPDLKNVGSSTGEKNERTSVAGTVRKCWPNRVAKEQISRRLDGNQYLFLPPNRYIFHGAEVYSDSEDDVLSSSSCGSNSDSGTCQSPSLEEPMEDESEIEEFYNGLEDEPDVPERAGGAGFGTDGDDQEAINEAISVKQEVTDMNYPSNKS

Row | SMILES | TSA(without NAD+) / Primary screening (TSA) / delta Tm (K)
1 | Cc1cc(=O)oc2cc(OCC(=O)NC3CCC4CCCCC4C3)ccc12 (stereo not shown) | -0.08
2 | CC(=O)OCC1OC(COc2ccc(C(=O)Cc3csc(-c4ccccc4)n3)c(O)c2)C(OC(C)=O)C(OC(C)=O)C1OC(C)=O (stereo not shown) | -0.03
3 | Cc1ccccc1N1C(=O)c2ccc(C(=O)NCC34CC5CC(CC(C5)C3)C4)cc2C1=O | 0.07
4 | Cc1ccc(NC(=O)CN2CSCC2=O)c(OCCN(C)C)c1 | -0.15
5 | O=C(COC(=O)c1cccc(NS(=O)(=O)/C=C/c2ccccc2)c1)NC12CC3CC(CC(C3)C1)C2 | 0.02
6 | NC(=O)c1csc(C(=O)NCc2ccn(-c3ccccc3F)n2)c1 | -0.12
7 | Cc1ccc(Oc2ccc(NC(=O)c3cncc(Br)c3)cc2)cc1 | -0.02
8 | Cc1nc2c3ccccc3nc(SCC(=O)Nc3cc(C(F)(F)F)ccc3-n3cncn3)n2n1 | -0.23
9 | Cc1cc2occ(CC(=O)N3CCC(C(N)=O)C3)c2cc1C(C)C (stereo not shown) | -0.07
10 | COc1ccc(C(=O)C2=C(O)C(=O)N(CCCN3CCOCC3)C2c2ccc(Cl)cc2)cc1C (stereo not shown) | 0.08
11 | COC(=O)CSc1nc2ccc(OC)cc2[nH]1 | -0.12
12 | CCOC(C)CN (stereo not shown) | -0.32
13 | NC(=O)c1ccc(N2CCCC2)c(NC(=O)CCNC(=O)Cc2ccccc2)c1 | -0.11
14 | NC(=O)c1ccc(F)c(NC(=O)NCc2ccc(N3CCCCCC3)nc2)c1 | -0.08
15 | COCCNc1oc2c(c1-c1ccccc1[N+](=O)[O-])c(=O)oc1ccc(C)cc12 | -0.23
16 | COc1ccc(N2C(=O)/C(=C/NNC(=O)C34CC5CC(CC(C5)C3)C4)c3ccccc3C2=O)cc1 | 0.43
17 | CC1CCCCN1CCCCNC(=O)c1ccc2c(c1)C(=O)N(CCc1ccccc1)C2=O (stereo not shown) | 0.16
18 | O=C(O)CN1C(=O)CSC1=S | 0.27
19 | Cc1ccc(N(C)S(=O)(=O)c2cccc(C(=O)NCCc3c[nH]c4ccccc34)c2)cc1 | 0.23
20 | COc1ccc(NC(=O)C2=COCCO2)cc1S(=O)(=O)N1CCOCC1 | -0.13
21 | O=C(CN1CCc2ccccc21)Nc1cnc2ccccc2c1 | -0.04
22 | O=[N+]([O-])c1ccc(/C=C/C2=NN(c3ccccc3)C(c3ccco3)C2)o1 (stereo not shown) | -0.03
23 | O[C@H]1CCN(c2ncnc3ccsc23)C1 | 0.07
24 | CS(=O)(=O)Nc1cccc(OCCNC(=O)C2=NN(Cc3ccccc3)C(=O)CC2)c1 | -0.01
25 | Cc1cc(=O)oc2cc(OCC(=O)Nc3ccc4ccccc4c3)ccc12 | 0.19
26 | OC1CN(c2ncnc3c2oc2ccccc23)C1 | 0.05
27 | O=C(CCc1cccnc1)NCCCc1nc2ccccc2[nH]1 | -0.02
28 | COc1cc(CNC(=O)CCc2c(C)nc(N3CCOCC3)[nH]c2=O)ccc1OCc1ccccc1 | -0.23

Exported comma-delimited: three of the compounds above.
Row,SMILES,TSA(without NAD+) / Primary screening (TSA) / delta Tm (K)
1,Cc1cc(=O)oc2cc(OCC(=O)NC3CCC4CCCCC4C3)ccc12 (stereo not shown),-0.08
12,CCOC(C)CN (stereo not shown),-0.32
22,O=[N+]([O-])c1ccc(/C=C/C2=NN(c3ccccc3)C(c3ccco3)C2)o1 (stereo not shown),-0.03

Carrying on:

Row | SMILES | TSA(without NAD+) / Primary screening (TSA) / delta Tm (K)
29 | Cc1cc(C(=O)COC(=O)c2cc(S(=O)(=O)N3CCCCC3)ccc2N2CCCCC2)c(C)n1CC1CCCO1 (stereo not shown) | 0.02
30 | Nc1ccc(NC=C2C(=O)CC(c3ccccc3)CC2=O)cc1 (stereo not shown) | 0.07
31 | NC(=O)c1ccc(COC(=O)c2ccc(S(N)(=O)=O)cc2)cc1 | -0.11
32 | O=C(Cc1noc2ccccc12)NCc1ccc(N2CCCC2=O)cc1 | 0.02
33 | NS(=O)(=O)CCNc1ncnc2ccsc12 | -0.07
34 | C#C[C@]1(O)CC[C@H]2[C@@H]3CCC4=CC(=O)CC[C@@H]4[C@H]3CC[C@@]21CC | -0.04
35 | Cc1nnc(CNC(=O)c2cc(-c3ccccc3)nc3c(C(N)=O)ncn23)s1 | -0.04
36 | NC(=O)c1ccc(C(=O)NC2CCN(C(=O)NC3CCCCC3)CC2)cc1 | -0.17
37 | O=C(CC12CC3CC(CC(C3)C1)C2)NNC(=O)[C@H](Cc1ccccc1)N1C(=O)c2ccccc2C1=O | 0.12
38 | Cc1nn(-c2ccccc2)c(C)c1NC(=O)COC(=O)c1ccc2[nH]c(C)c(C)c2c1 | -0.02
39 | Cc1nc2cc(C(=O)NCc3nnc4ccccn34)ccc2n1-c1ccccc1 | -0.18
40 | CCc1nnc(NC(=O)Nc2ccc(O)cc2C)s1 | -0.15
41 | CC(C)[C@H](NC(=O)Cc1cccc2ccccc12)C(=O)OCC(=O)NC12CC3CC(CC(C3)C1)C2 | -0.03
42 | CNC(=O)c1ccc2[nH]c3c(c2c1)CCCC3 | -0.18
43 | CC(OC(=O)Cc1coc2cc(O)ccc12)C(=O)Nc1ccc(C(N)=O)cc1 (stereo not shown) | -0.41
44 | Cc1ccc(C(=O)NNC(=O)c2ccc(S(=O)(=O)N3CCCC3)cc2)cc1 | -0.13
45 | CS/C(=N/S(=O)(=O)c1cccs1)NS(=O)(=O)c1ccc(N)cc1 | -0.11
46 | N#Cc1ccc(CN2CCC(CCc3ccc(O)cc3)CC2)c(F)c1 | -0.11
47 | CC(OC(=O)c1c2ccccc2cc2ccccc12)C(=O)c1ccccc1 (stereo not shown) | -0.14
48 | O=C(CCc1nc2ccccc2s1)Nc1ccc(N2CCN(Cc3ccccc3)CC2)cc1 | 0.17
49 | NC(=O)c1ccc(S(=O)(=O)NNC(=O)c2cc3c(s2)CCCCC3)cc1 | -0.03
50 | CN(c1ccccc1)S(=O)(=O)c1cccc(NC(=O)CCc2c[nH]c3ccccc23)c1 | 0.38
51 | O=C(Nc1cccc(S(=O)(=O)NCc2ccco2)c1)c1ccc(COc2ccccc2)o1 | -0.01
52 | COc1ccc(CCNC(=O)c2ccccc2NS(=O)(=O)CC23CCC(CC2=O)C3(C)C)cc1 (stereo not shown) | 0.25
53 | O=C(NCc1ccccc1)/C(=C/c1ccc(OCc2ccccc2)cc1)c1nc2ccccc2[nH]1 | 0.12
54 | CC(Sc1nc(N)nc(N)n1)C(=O)N1CCOCC1 (stereo not shown) | -0.27
55 | CCN(CC)C(CNC(=O)CNC(=O)c1ccoc1C)c1ccco1 (stereo not shown) | 0.02
